In the supplement of paper PMC7877785:
± gives the uncertainty stated by the source. Many entries were measured with a wide error.

Experiment: self-splicing fitness, log relative to wild type (ln ratio); higher = more splicing; Tetrahymena group I intron in knt gene, E. coli kanamycin selection, DiMSum; sequences stand for … in CUCUCU…GGAGGGAAAAGUUAUCAGGCAUGCACCUGGUAGCUAGUCUUUAAACCAAUAGAUUGCAUCGGUUUAAAAGGCAAGACCGUCAAAUUGCGGGAAAGGGGUCAACAGCCGUUCAGUACCAAGUCUCAGGGGAAACUUUGAGAUGGCCUUGCAAAGGGUAUGGUAAUAAGCUGACGGACAUGGUCCUAACCACGCAGCCAAGUCCUAAGUCAACAGAUCUUCUGUUGAUAUGGAUGCAGUUCACAGACUAAAUGUCGGUCGGGGAAGAUGUAUUCUUCUCAUAAGAUAUAGUCGGACCUCUCCUUAAUGGGAGCUAGCGGAUGAAGUGAUGCAACACUGGAGCCGCUGGGAACUAAUUUGUAUGCGAAAGUAUAUUGAUUAGUUUUGGAGUACUCGUGGUCG
Method in brief: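 Pooled colonies went to amplicon sequencing on an Illumina HiSeq 2500 after six replicate transformations. The plates were LB agar with 100 μg/mL carbenicillin, 50 μM IPTG and 0.2% rhamnose, with or without 25 μg/mL kanamycin, incubated overnight at 37°C or 30°C. The E. coli BL21(DE3) library had all eight P1ex-region intron nucleotides randomised, the intron placed in the knt kanamycin-resistance gene on pET-22b(+). DiMSum fitness is the error-weighted combination of replicate fold changes, kanamycin against none, normalised to wild type.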

Row | Sequence | self-splicing fitness (ln) (30 °C) | self-splicing fitness (ln) (37 °C)
1 | CUGUAGCAAUAUUACGCCUA | -2.77 ± 0.62 | -2.23 ± 0.55
2 | GUGUAGCAAUAUUACGACCC | -0.86 ± 1.4 | -1.97 ± 0.58
3 | UAUUAGCAAUAUUACGUCGC | -3.35 ± 1 | -2.52 ± 0.54
4 | GCACAGCAAUAUUACGUAAC | -1.83 ± 0.092 | -0.651 ± 0.11
5 | CUGGAGCAAUAUUACGGCUA | -3 ± 0.77 | 
6 | CAUCAGCAAUAUUACGCCCC |  | -1.53 ± 0.5
7 | GUGGAGCAAUAUUACGACUG | -3.13 ± 0.74 | -1.44 ± 0.69
8 | AUUGAGCAAUAUUACGACUG | -3.63 ± 0.52 | 
9 | AGGGAGCAAUAUUACGGUUC | -4.3 ± 0.73 | 
10 | AUUGAGCAAUAUUACGUGCC |  | -1.2 ± 0.52
11 | AUCUAGCAAUAUUACGCGCG | -0.762 ± 0.095 | -0.257 ± 0.12
12 | CUGAAGCAAUAUUACGUCUC | -4.97 ± 0.58 | 
13 | CGAAAGCAAUAUUACGGGUG | 0.0165 ± 0.043 | 0.189 ± 0.063
14 | UAUGAGCAAUAUUACGCCAC | -2.42 ± 0.82 | -2.04 ± 0.56
15 | AACCAGCAAUAUUACGUUAG | -3.68 ± 0.11 | -2.44 ± 0.11
16 | GCGCAGCAAUAUUACGCGGC | -2.66 ± 0.5 | 
17 | UAUUAGCAAUAUUACGUGCC | -3.87 ± 1 | -1.48 ± 0.84
18 | GGGAAGCAAUAUUACGUUCC |  | -2.68 ± 0.54
19 | CCCCAGCAAUAUUACGCGGA | -3.34 ± 0.15 | -2.07 ± 0.12
20 | CCGUAGCAAUAUUACGGAGC | -2.71 ± 0.56 | -2 ± 0.57
21 | GGUGAGCAAUAUUACGAACU |  | -1.88 ± 1.2
22 | AACUAGCAAUAUUACGCCGC |  | -3.69 ± 0.52
23 | GAGGAGCAAUAUUACGUCAC |  | -2.71 ± 0.61
24 | CCAAAGCAAUAUUACGAAGC |  | -2.02 ± 0.54

5 entries picked at random from the list so far:
Row | Sequence | self-splicing fitness (ln) (30 °C) | self-splicing fitness (ln) (37 °C)
23 | GAGGAGCAAUAUUACGUCAC |  | -2.71 ± 0.61
6 | CAUCAGCAAUAUUACGCCCC |  | -1.53 ± 0.5
20 | CCGUAGCAAUAUUACGGAGC | -2.71 ± 0.56 | -2 ± 0.57
8 | AUUGAGCAAUAUUACGACUG | -3.63 ± 0.52 | 
9 | AGGGAGCAAUAUUACGGUUC | -4.3 ± 0.73 | 

Later entries:

Row | Sequence | self-splicing fitness (ln) (30 °C) | self-splicing fitness (ln) (37 °C)
25 | UCCGAGCAAUAUUACGGAAA | -2.87 ± 0.75 | 
26 | GAUGAGCAAUAUUACGCCGA | -2.45 ± 0.56 | 
27 | GGAAAGCAAUAUUACGCUCC | -3.18 ± 0.54 | -0.693 ± 1.4
28 | GCAGAGCAAUAUUACGGAUU |  | -3.15 ± 0.73
29 | CCGUAGCAAUAUUACGGACG |  | -1.14 ± 0.82
30 | UGAUAGCAAUAUUACGCCCC | -2.85 ± 0.43 | -0.875 ± 0.38
31 | UAGUAGCAAUAUUACGUAGC | -3.52 ± 0.22 | -1.37 ± 0.2
32 | GGAGAGCAAUAUUACGCUUU | -3.16 ± 0.53 | -3 ± 0.61
33 | UUGGAGCAAUAUUACGCCCG |  | 0.254 ± 1.2
34 | CUCGAGCAAUAUUACGAGGC |  | -0.463 ± 0.87
35 | GUGGAGCAAUAUUACGCUAU | -2.85 ± 0.25 | -2.26 ± 0.5
36 | UCUUAGCAAUAUUACGAAUU | -3.75 ± 1 | 
37 | GACGAGCAAUAUUACGUCGA |  | -2.11 ± 0.55
38 | GCUAAGCAAUAUUACGGAGC | -3.98 ± 0.51 | 
39 | UAGUAGCAAUAUUACGGUAC |  | -1.39 ± 0.62
40 | GGUAAGCAAUAUUACGGCCC | -3.21 ± 0.54 | -0.778 ± 1
41 | GUAUAGCAAUAUUACGCCAA |  | -1.62 ± 1.1
42 | ACUUAGCAAUAUUACGUGGA | -2.47 ± 0.13 | -2.7 ± 0.16
43 | GUUGAGCAAUAUUACGUCCG |  | -1.5 ± 0.69
44 | AAACAGCAAUAUUACGACAU | -0.514 ± 0.011 | -0.112 ± 0.032
45 | UCGGAGCAAUAUUACGAUGA | -0.946 ± 0.15 | -1.11 ± 0.16
46 | UCUUAGCAAUAUUACGUUCC |  | -2.23 ± 0.5
47 | AUGCAGCAAUAUUACGCAGC | -2.54 ± 0.59 | 
48 | AGUGAGCAAUAUUACGCUCU | -3.96 ± 1 | 

Row | Sequence | self-splicing fitness (ln) (30 °C) | self-splicing fitness (ln) (37 °C)
49 | UGGAAGCAAUAUUACGAGAC |  | -2.9 ± 1.1
50 | UUCGAGCAAUAUUACGCUUG |  | -1.92 ± 0.57
51 | CCAGAGCAAUAUUACGCCAA | -2.7 ± 0.51 | 
52 | UUCGAGCAAUAUUACGUCAC |  | -0.933 ± 0.65
53 | UACGAGCAAUAUUACGUCAA | -3.26 ± 0.63 | 
54 | GGUGAGCAAUAUUACGUGGC | -4.03 ± 0.59 | 
55 | GCUGAGCAAUAUUACGAGUC | -3.39 ± 0.53 | 
56 | CCCUAGCAAUAUUACGAACG | -3 ± 0.21 | -2.59 ± 0.29
57 | GCGGAGCAAUAUUACGAGGU |  | -4.04 ± 0.72
58 | GCGCAGCAAUAUUACGCCAC | -2.61 ± 0.52 | 
59 | CUAGAGCAAUAUUACGUCCC | -2.82 ± 0.64 | 
60 | UCGGAGCAAUAUUACGUAUA | -3.31 ± 0.75 | -1.88 ± 1.2
61 | UGUUAGCAAUAUUACGAGAU | -3.59 ± 0.52 | 
62 | CGGGAGCAAUAUUACGGGGU |  | -1.6 ± 0.72
63 | GGCGAGCAAUAUUACGCCCU | -1.91 ± 0.66 | -1.64 ± 0.84
64 | AGAGAGCAAUAUUACGAGGC |  | -2.32 ± 0.78
65 | CGUAAGCAAUAUUACGAAUC | -2.19 ± 0.51 | 
66 | GUACAGCAAUAUUACGUCCC | 0.202 ± 0.52 | 0.947 ± 0.65
67 | AAGGAGCAAUAUUACGCAAC | -3.63 ± 0.54 | -1.9 ± 0.6
68 | CGUCAGCAAUAUUACGAACG | -2.55 ± 0.17 | -1.32 ± 0.18
69 | UGGGAGCAAUAUUACGCCUG |  | -1.66 ± 0.68
70 | GUCGAGCAAUAUUACGAGGA | -2.93 ± 0.51 | 
71 | CUGAAGCAAUAUUACGACGC |  | -3.78 ± 0.73
72 | UGGUAGCAAUAUUACGAUUU | -1.14 ± 0.14 | -0.866 ± 0.14

Row | Sequence | self-splicing fitness (ln) (30 °C) | self-splicing fitness (ln) (37 °C)
73 | UGCAAGCAAUAUUACGUACU | -0.936 ± 0.13 | 0.0223 ± 0.17
74 | AGCUAGCAAUAUUACGAAGU | -4.06 ± 0.32 | -1.73 ± 0.26
75 | CGCCAGCAAUAUUACGAGUU | -3.19 ± 0.15 | -3.16 ± 0.2
76 | AAGGAGCAAUAUUACGGGUG |  | -0.677 ± 0.57
77 | UAUGAGCAAUAUUACGCACG | -0.0624 ± 0.67 | -2.39 ± 1.1
78 | UUUAAGCAAUAUUACGAUGC |  | -1.04 ± 0.59
79 | UUUUAGCAAUAUUACGACCU | -3.09 ± 0.63 | 
80 | UACCAGCAAUAUUACGCAUU | -2.42 ± 0.092 | -0.373 ± 0.078
81 | GGGUAGCAAUAUUACGCAAC | -2.29 ± 0.57 | 
82 | CUAGAGCAAUAUUACGAUUA | -2.49 ± 0.23 | -2.26 ± 0.23
83 | CUCGAGCAAUAUUACGAUCG | -3.43 ± 0.61 | 
84 | UGCGAGCAAUAUUACGAAAA |  | -0.527 ± 0.56
85 | UUCGAGCAAUAUUACGAUUC |  | -3.23 ± 0.52
86 | CAGGAGCAAUAUUACGACGC |  | 0.000402 ± 1.2
87 | CUGUAGCAAUAUUACGAAUU | -4.44 ± 0.72 | 
88 | UCGUAGCAAUAUUACGGACC |  | -3.38 ± 1
89 | ACAAAGCAAUAUUACGAGCC | -4.62 ± 0.72 | 
90 | UAGCAGCAAUAUUACGUUAC | -5.27 ± 0.58 | 
91 | CCUGAGCAAUAUUACGGCAC | -3.95 ± 0.59 | 
92 | UCGCAGCAAUAUUACGACGC | -1.81 ± 0.48 | -2.42 ± 0.8
93 | GGAAAGCAAUAUUACGCACC |  | -2.66 ± 0.76
94 | AACCAGCAAUAUUACGGCCG | 0.0592 ± 0.073 | -0.223 ± 0.1
95 | CGGUAGCAAUAUUACGAGCC | -2.86 ± 0.66 | -0.693 ± 1.4
96 | GGAUAGCAAUAUUACGGGAC | -2.5 ± 0.24 | -2.15 ± 0.17

Taken from above.
UAUGAGCAAUAUUACGCCAC | self-splicing fitness (ln) (37 °C): -2.04 ± 0.56
CCUGAGCAAUAUUACGGCAC | self-splicing fitness (ln) (30 °C): -3.95 ± 0.59

(further entries)

Row | Sequence | self-splicing fitness (ln) (30 °C) | self-splicing fitness (ln) (37 °C)
97 | GUUGAGCAAUAUUACGCUGG | -2.7 ± 0.55 | -1.67 ± 0.73
98 | CUGGAGCAAUAUUACGAAAG |  | -1.27 ± 0.51
99 | AACUAGCAAUAUUACGCGGA | -2.25 ± 0.1 | -1.18 ± 0.086
100 | UAGUAGCAAUAUUACGUCCC | -3.19 ± 1.2 | 0.000402 ± 1.2
101 | UCGCAGCAAUAUUACGGGAC | -2.84 ± 0.55 | -1.32 ± 0.62
102 | CUCGAGCAAUAUUACGCGGG |  | -3.42 ± 0.6
103 | ACCUAGCAAUAUUACGGAUA | -1.65 ± 0.11 | -1.59 ± 0.099
104 | AGCGAGCAAUAUUACGCCCC | -2.76 ± 0.51 | 
105 | GCUAAGCAAUAUUACGACUA | -1.7 ± 0.19 | -0.865 ± 0.23
106 | UUCUAGCAAUAUUACGGGCU | -3.73 ± 0.36 | -3.76 ± 0.36
107 | CAAAAGCAAUAUUACGGGGA | -3.26 ± 0.15 | -2.36 ± 0.15
108 | AAUGAGCAAUAUUACGCAUA | -2.52 ± 0.19 | -2.42 ± 0.24
109 | AGAGAGCAAUAUUACGUACG | -3.81 ± 1 | -2.18 ± 0.65
110 | GCUCAGCAAUAUUACGGUAA | -1.52 ± 0.13 | -0.551 ± 0.11
111 | CUCGAGCAAUAUUACGCGUC | -3.93 ± 0.59 | 
112 | CUUAAGCAAUAUUACGCAUA |  | -3.09 ± 0.6
113 | UUGGAGCAAUAUUACGACCG | -1.27 ± 0.71 | -2.69 ± 0.62
114 | UUAUAGCAAUAUUACGCAGU | -3.79 ± 0.73 | 
115 | GACUAGCAAUAUUACGAGGC | -3.65 ± 0.52 | 
116 | CCAUAGCAAUAUUACGCGCC | -2.89 ± 0.52 | -2.3 ± 0.77
117 | GGCCAGCAAUAUUACGAGCC | -2.63 ± 0.26 | -2.72 ± 0.29
